{"sequences": {"note": "The chains behind the UniProt entries cited, without tags or fusion partners.", "UniProt Q0JBA9, entry or part of it": "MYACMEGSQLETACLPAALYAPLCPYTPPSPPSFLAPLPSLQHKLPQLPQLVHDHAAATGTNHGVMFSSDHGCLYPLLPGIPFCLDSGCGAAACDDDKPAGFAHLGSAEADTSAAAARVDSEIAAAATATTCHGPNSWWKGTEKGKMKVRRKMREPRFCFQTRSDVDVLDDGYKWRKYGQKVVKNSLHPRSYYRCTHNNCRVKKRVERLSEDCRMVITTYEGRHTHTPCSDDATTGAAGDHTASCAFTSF"}, "source": "paper PMC7819943", "about": "“Rice protein-binding microarrays: a tool to detect cis-acting elements near promoter regions in rice”", "note": "Some of the results follow."}
{"target": "OsWRKY34 (Oryza sativa, UniProt Q0JBA9 1-250)", "assay": "protein-binding microarray (RPBM); PBS, 2% BSA, 51.3 ng/ul salmon testes DNA, 50 uM zinc acetate, 200 nM TF, 25 C, 1 h; high values mean tight binding", "details": "protein: recombinant; tags: N-terminal polyhistidine and DsRed monomer fusion (pET32a); label: CyDye5-dUTP incorporated in the synthesized complementary strand; 3' TTTTT single-stranded linker to array surface; dsDNA, one strand shown", "in_short": "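Binding signal is defined as the fluorescence intensity of each feature in arbitrary units, read on an Axon 4000B scanner. Transcription factors with N-terminal polyhistidine and DsRed fusions came from E. coli BL21-CodonPlus and were purified on Ni–NTA. They were incubated at 200 nM for 1 h at 25 °C on a custom Agilent array that had been made double-stranded with Cy5-dUTP, with 50 µM zinc acetate present, and the array was washed.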"}
{"sequence": "GAATTTCTTTTTCCGTCGTTTGTCTGGTCCACCATGAAACCGGAGTCACCTAGTGCAG", "binding signal": "8260 fluorescence intensity (a.u.)"}
{"sequence": "ATTATTGCTATTTGTCCGCACAATTTCTCCCTGTTTTTCGCGGAGTCACCTAGTGCAG", "binding signal": "11800 fluorescence intensity (a.u.)"}
{"sequence": "TGTGTAGTCATCTCCTTTTATGCCATCTGCAAAACAAGCCCGGAGTCACCTAGTGCAG", "binding signal": "10700 fluorescence intensity (a.u.)"}
{"sequence": "CTGGGCTATTCCTAACTAGGTCCAACCCCATGCAGCGACACGGAGTCACCTAGTGCAG", "binding signal": "9120 fluorescence intensity (a.u.)"}
{"sequence": "TCATTCCTTCTCTTTTTTTCTCGCTTTGTTTCTCCCGTCGCGGAGTCACCTAGTGCAG", "binding signal": "9920 fluorescence intensity (a.u.)"}
{"sequence": "GTGATACATTTTCGGACCATTTGGTAATTTCATTCAGACACGGAGTCACCTAGTGCAG", "binding signal": "12100 fluorescence intensity (a.u.)"}
{"sequence": "TTCTGGTGAGCTTCTTGTTTGTTTCTTGTATTTTTTTGTTCGGAGTCACCTAGTGCAG", "binding signal": "9020 fluorescence intensity (a.u.)"}
{"sequence": "GGCACGGCGACTACCGAATTTCGATTTTTCTTTCTTTCTTCGGAGTCACCTAGTGCAG", "binding signal": "9120 fluorescence intensity (a.u.)"}
{"sequence": "TTCCGGTTAATTCGCTCCTACGCGCACCCACACCACCACCCGGAGTCACCTAGTGCAG", "binding signal": "8700 fluorescence intensity (a.u.)"}
{"sequence": "GATGACCCATGATTCCGCGGCGTACCATCTGTTCTGTCAACGGAGTCACCTAGTGCAG", "binding signal": "8960 fluorescence intensity (a.u.)"}
{"sequence": "CATCGCCGCCATCACTGATCCGCCGCTCCCCATCTTCTCCCGGAGTCACCTAGTGCAG", "binding signal": "9310 fluorescence intensity (a.u.)"}
{"sequence": "ATTTCTATTGACTCCATGTGTTGGTCTCTTTAGTACTCCACGGAGTCACCTAGTGCAG", "binding signal": "8420 fluorescence intensity (a.u.)"}
{"sequence": "CGACTCTAAGCATTGTCATATGTAGCAATTACGTTTCCCTCGGAGTCACCTAGTGCAG", "binding signal": "8440 fluorescence intensity (a.u.)"}
{"sequence": "GACTATCCTTGTCGTGACCACACCTTCGTGAGCTCGTTGTCGGAGTCACCTAGTGCAG", "binding signal": "8970 fluorescence intensity (a.u.)"}
{"sequence": "TTAATGTATGACGCCGTTGACTTTTTAATCAACGTTTGACCGGAGTCACCTAGTGCAG", "binding signal": "25900 fluorescence intensity (a.u.)"}
{"sequence": "GGAACGTGACAGTTTTGCAATCCTCTGTTTTACACTTACACGGAGTCACCTAGTGCAG", "binding signal": "10600 fluorescence intensity (a.u.)"}
{"sequence": "CTGGCATCCTCCTCCTCTGATCTCCTCCTCGGTCACTTCACGGAGTCACCTAGTGCAG", "binding signal": "8430 fluorescence intensity (a.u.)"}
{"sequence": "CTCCTTGGCCCTCGCCGCGGTCGTCTCCTCCGCCGCCACGCGGAGTCACCTAGTGCAG", "binding signal": "9220 fluorescence intensity (a.u.)"}
{"sequence": "TAGAATCTCTTTGATTTCTTGTGCTTTTTCTTGCTTTTTCCGGAGTCACCTAGTGCAG", "binding signal": "9670 fluorescence intensity (a.u.)"}
{"sequence": "CAAGGTTGCATTATATCTGGTTTTACGGTTTAAGGATTTTCGGAGTCACCTAGTGCAG", "binding signal": "8680 fluorescence intensity (a.u.)"}
{"sequence": "GTATGTCTAGATTTGTAGTGTTAGGATGCAGGTTAGTTTTCGGAGTCACCTAGTGCAG", "binding signal": "12600 fluorescence intensity (a.u.)"}
{"sequence": "CTTAATTAGCTAGCTAGCCGCTCAAGTCATATATATATATCGGAGTCACCTAGTGCAG", "binding signal": "8280 fluorescence intensity (a.u.)"}
{"sequence": "TGCACTGCACGGTGGTGCGCTTGCCCGCGCTTCGGCCGGCCGGAGTCACCTAGTGCAG", "binding signal": "10500 fluorescence intensity (a.u.)"}
{"sequence": "TTTGATTTTCGTTTTGTTTTTATTTGGCCCACCACAAGTCCGGAGTCACCTAGTGCAG", "binding signal": "9320 fluorescence intensity (a.u.)"}
{"sequence": "ACTCCGCACCCGCCCCACCTTGGCGTATAGATGGCCATAACGGAGTCACCTAGTGCAG", "binding signal": "9790 fluorescence intensity (a.u.)"}
{"sequence": "GCAGTCGGTCAGCCTCAATCCAAACCAAAAGCTTATTTGCCGGAGTCACCTAGTGCAG", "binding signal": "8500 fluorescence intensity (a.u.)"}
{"sequence": "CCATTCTACCTGTATTTTAAACCTGCATCCGCAACTGGCACGGAGTCACCTAGTGCAG", "binding signal": "9610 fluorescence intensity (a.u.)"}
{"sequence": "ACATGTCTTTGTACTATTTTCTTAATTCTTATCTTAGGTTCGGAGTCACCTAGTGCAG", "binding signal": "10300 fluorescence intensity (a.u.)"}
{"sequence": "TCTGTCTAGTGATATTTGTTGAGATTGATTGCATATCAGACGGAGTCACCTAGTGCAG", "binding signal": "8930 fluorescence intensity (a.u.)"}
{"sequence": "TACACATTTTTTTTATGTCCTGTAGCAAATTTTGTCTTTTCGGAGTCACCTAGTGCAG", "binding signal": "12500 fluorescence intensity (a.u.)"}
{"sequence": "CCTGGTGTTGTTGGTTCGATCGTCGATATCAAGAATTTGACGGAGTCACCTAGTGCAG", "binding signal": "8060 fluorescence intensity (a.u.)"}
{"sequence": "TTTCACACGTCCACGATTTGCAACTGATTTTATCACGTTCCGGAGTCACCTAGTGCAG", "binding signal": "9530 fluorescence intensity (a.u.)"}
{"sequence": "ACCCCGCACCAAACCCTAGCCGTCTCGCCCACCCACGCGCCGGAGTCACCTAGTGCAG", "binding signal": "10500 fluorescence intensity (a.u.)"}
{"sequence": "CTCATATGCTTTCCCTTTCTCAGCTCCAGCTCATTCGCTACGGAGTCACCTAGTGCAG", "binding signal": "8100 fluorescence intensity (a.u.)"}
{"sequence": "CTTAATATGTGTTAAACTTTTCAATGTGTTTCCTATTGAACGGAGTCACCTAGTGCAG", "binding signal": "8250 fluorescence intensity (a.u.)"}
{"sequence": "GCGCCCGTCTCTCCGTAACCGTGCACCACTCCACCGCGCCCGGAGTCACCTAGTGCAG", "binding signal": "10700 fluorescence intensity (a.u.)"}
{"sequence": "ACCCTGACCCCTCCTCGTCAGTTTGCCCGCCGCGGCGCCGCGGAGTCACCTAGTGCAG", "binding signal": "10700 fluorescence intensity (a.u.)"}
{"sequence": "GTGTGGTGAAGGTGGCAGAGGAGTTGATGTTTTAGTTGAGCGGAGTCACCTAGTGCAG", "binding signal": "8860 fluorescence intensity (a.u.)"}
{"sequence": "TCTTCGTCGACACCACCCCAGCCGGTGTCCCCACACGCTCCGGAGTCACCTAGTGCAG", "binding signal": "8980 fluorescence intensity (a.u.)"}
{"sequence": "CAATCAACAGCTGTTGCATATCATGCCATGTTTCGTAATTCGGAGTCACCTAGTGCAG", "binding signal": "8720 fluorescence intensity (a.u.)"}
{"sequence": "AGTTGTTCTTTATTTCTCAGATTTTCCTTAGGCATTGTTCCGGAGTCACCTAGTGCAG", "binding signal": "12500 fluorescence intensity (a.u.)"}
{"sequence": "CAAACTGCATTGTTTCACTTGTCTGCAGCTAGTTTCAATGCGGAGTCACCTAGTGCAG", "binding signal": "8200 fluorescence intensity (a.u.)"}
